Measured values from the supplement of paper PMC5949888.
Most values lie at the floor of the assay. Slopes are relative: functional sequences can read slightly below zero.

System: Saccharomyces cerevisiae PS128 hsf1 delta, HSF1(1-493) fusion
Experiment: growth estimate (transactivation domain function in HSF1 fusion, heat-shock survival) (a.u. (slope of normalised read count over time)); higher = stronger growth at 37°C, i.e. more transactivation activity
Details: library: random library
Method: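 Random 60-nt DNA library encoding peptides of up to 20 aa, fused to the C-terminus of yeast HSF1 residues 1-493 (C-terminal TAD deleted) and expressed from the native HSF1 promoter on a CEN plasmid in hsf1-deleted S. cerevisiae PS128. Cells were selected at 37°C on -trp 5-FOA plates for 0, 2, 4, 6 and 8 days and amplicons were sequenced. Growth estimate is the slope of a robust linear fit of total-sum-normalised read counts (normalised to the first time point) over time, using at least 2 replicates. Sequences are classed functional (TAD activity) above a threshold of -0.13, set from stop-codon control sequences.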

Row | Substance | growth estimate
1 | VRRKNRGVCHSPA | < -0.25
2 | RTTCHLPS | < -0.25
3 | SHTRGSYVCTLVQCSVVL | < -0.25
4 | ANGKWRSKWARVPDVQLLCR | < -0.25
5 | LVGRNLKDVTLRQR | -0.245
6 | KLPLKYLSCTSRPNPAKYST | < -0.25
7 | GRGYYDVLRAGGVGVPLSAG | < -0.25
8 | CLQRDGGNLICMLVQGDLCV | < -0.25
9 | HEAQTAIRAKDPGRLTWPNR | < -0.25
10 | KSDGDSRCYQQKWRTRIPII | < -0.25
11 | QRKGTPVGPFRGNQPVVAPA | < -0.25
12 | CVTKIY | < -0.25
13 | IEKKVKPSTR | < -0.25
14 | ERAHRDRYFNSAVNSVTHRM | < -0.25
15 | GRPHLSSMSYQNWFKGHANV | < -0.25
16 | AEGWRGARGNCCHHSCAFH | < -0.25
17 | FVE | < -0.25
18 | CSTETRVRKTRYDVYMT | < -0.25
19 | ECLVAY | < -0.25
20 | PMTSPPGVGGS | < -0.25
21 | RLDTATLLSYSAIT | < -0.25
22 | WGWSEVSSGYCTQQRLSWIA | < -0.25
23 | RIHRGKRIWGPTDI | < -0.25
24 | QLCSFQVPV | < -0.25
25 | SFSTIRDLRVHCG | < -0.25
26 | DHL | < -0.25

Row | Substance | growth estimate
27 | RSPYAVSEITGRFAIRM | < -0.25
28 | RNGGDALGVVDGRQTVCL | < -0.25
29 | GDRARAIQ | < -0.25
30 | VNRV | < -0.25
31 | ALSRYNRRGSSAVTQSGFVG | -0.246
32 | RLHDGRGLAGNAKIQLQLGV | < -0.25
33 | GLLFGQE | < -0.25
34 | KWTAFVRPRGRRETRSVNVS | < -0.25
35 | YHVRVAERATFEPH | < -0.25
36 | LIPDQ | < -0.25
37 | RLSGERKFEAQRFAISGSGR | < -0.25
38 | GLSIWATQDNLLTNIYMRSF | -0.248
39 | PESP | < -0.25
40 | LAILGWIT | < -0.25
41 | KYTNAGKSL | < -0.25
42 | KRFEQSACSHLLRGSSLGER | < -0.25
43 | LATRIHLRV | < -0.25
44 | YAKCY | < -0.25
45 | MSKP | < -0.25
46 | GGYHGRERGSRLADLLSHQA | < -0.25
47 | SINQKSLGTYEQYGNKRPGP | < -0.25
48 | QQYQPVLIRC | < -0.25
49 | VSRHWRQRFQPEQCAPMPGP | < -0.25
50 | LVPLRH | < -0.25
51 | LGVGC | < -0.25
52 | RIITMSCRGPSCRTRERGCM | < -0.25

Row | Substance | growth estimate
53 | LGSGLSRFAAPLEGRHCIPR | < -0.25
54 | RRLPKSLYSKD | < -0.25
55 | FSIDVTRIIR | < -0.25
56 | RTGIQRVRLLGFVMITVVLI | < -0.25
57 | VLVGIDVQDKQRVALAIGPP | -0.246
58 | CLGQRHDPCMDCVLPRCSRP | < -0.25
59 | SHRGTVHRGPTGCLNVKRPV | < -0.25
60 | LVES | < -0.25
61 | SLKLIRFFGVAAIGFLEERF | < -0.25
62 | KVPPAPMRLYRVGNEGRYDL | < -0.25
63 | VGVM | < -0.25
64 | RLTKGPHGY | < -0.25
65 | AVS | < -0.25
66 | PVIWELRQTG | -0.245
67 | GVNNQASAHLLLTCRKAQYL | < -0.25
68 | HLCRGPSFHSESLHGICECG | < -0.25
69 | LLKRLAPGRSQSDRIPGGWC | < -0.25
70 | TSSLARVGRLEILS | < -0.25
71 | LEEACTGLRALCPRE | < -0.25
72 | VPSTAQRRWRGTGSAPGS | < -0.25
73 | ARTIYHPVLLTRRLWKSQST | -0.237
74 | VSSRIDQVGHYY | < -0.25
75 | RRNQLEQHPGSKSQPG | < -0.25
76 | DLWSLEAVERTAPTKPGPKE | < -0.25
77 | RCCPQFTGRRH | < -0.25
78 | RCIRSRTPREFLCSRPSSLT | < -0.25

Row | Substance | growth estimate
79 | VTNTSTEGNRHEHVVQYLIA | -0.25
80 | QVHDPLDAT | < -0.25
81 | ILRRFSKTQEGKNFRRL | < -0.25
82 | TLKGD | < -0.25
83 | RGDVRREIDHLS | < -0.25
84 | TGRYGGSNVV | < -0.25
85 | PTLSCMARSIGTRHRCEQFR | < -0.25
86 | GRSYSASFACLARKELVAEN | < -0.25
87 | AENVANCQIVRKPFCLDPLN | < -0.25
88 | RTRLREL | < -0.25
89 | TNHVAYEGVWSIKQGNGDRL | < -0.25
90 | ETCA | < -0.25
91 | YKPQEGSRIGGWWLIGYRDA | < -0.25
92 | YYAASPAVLVVLHLIFRAHG | < -0.25
93 | KVVRGPIKEQDVCGGKVGHW | < -0.25
94 | GRLVRWFLGDDLLTDRVLRT | -0.239
95 | NGHCTCGRPP | < -0.25
96 | TPP | < -0.25
97 | AYTMNPGSHLRGRGPIRVLF | < -0.25
98 | TDCS | < -0.25
99 | RSKRSQSAHRPQCLLRQHRQ | < -0.25
100 | VSEHGSRVDSQVLTVILASE | < -0.25
101 | DLRKRIGEHVTRQPTSCGEA | < -0.25
102 | CGNSGSFTAGS | < -0.25
103 | PPSTMRKALHLPGGI | < -0.25
104 | WKFCSLTSRSC | < -0.25

Row | Substance | growth estimate
105 | YKTVIGKVKWLSFFKANVIQ | < -0.25
106 | VLKA | -0.176
107 | MVVGRSGRTNNPSKARLCPL | < -0.25
108 | RKGVAR | < -0.25
109 | CTLIIGVPWYGFMRGWAELW | < -0.25
110 | QNVRGLLDRRLLEVRFGYCL | 0.356
111 | LCSQESAPSHQINIANST | < -0.25
112 | GGIIPDQLRPAVSRTRSVTT | < -0.25
113 | HEGWGYNFILDPRYDRGVST | -0.246
114 | WAELDG | < -0.25
115 | QLAPPITVPCCGLPCCVFFD | < -0.25
116 | SSPGAKLLRPLIA | < -0.25
117 | KDGR | < -0.25
118 | FEDVH | < -0.25
119 | RGQTRQSSRLSCWVSAQNAR | < -0.25
120 | TNLKVEPVDVDQQAVVSNQI | < -0.25
121 | VDIGSREV | < -0.25
122 | VHPDDNYITRWTTELNGNGF | < -0.25
123 | VRRDN | < -0.25
124 | GEQTKITGLPNRK | -0.248
125 | RASTNTSRDPDLL | < -0.25
126 | RRTLMSVKHCHNLSLMSRRP | < -0.25
127 | SPRCISRGPRFHLG | < -0.25
128 | SRVK | < -0.25
129 | IFLKSQGPSSPAEGGSHGLL | < -0.25
130 | HRVFIQTS | < -0.25

Row | Substance | growth estimate
131 | LHQAIG | < -0.25
132 | RHWVVSLKTRLTIA | < -0.25
133 | VKV | < -0.25
134 | ALHHGGSQKWRHEGTDGSFP | < -0.25
135 | VIGWTTTGWR | < -0.25
136 | SSKHCIDTVSAGLNRLVITR | < -0.25
137 | FHPRSWSLAGGV | < -0.25
138 | HSMFSSLVKRNSRHPPIVVS | < -0.25
139 | VSCESAVCAGPGLDIP | -0.246
140 | KRLNGMFLRTVNALDTSSRQ | < -0.25
141 | SGGAVP | < -0.25
142 | VLRPGDVRDNL | < -0.25
143 | QSGSHSSPYEYLGGDVTFSG | -0.109
144 | MMF | < -0.25
145 | VICISYRAGWLLESSSLALG | < -0.25
146 | VATERSLLSSAEIFLLATFD | < -0.25
147 | QQQRLRYIIAVLPHWRRCTY | < -0.25
148 | NNYRYAE | < -0.25
149 | PTAPSRVLIRRLIIACVGAS | < -0.25
150 | ARLGAQECPSRSCTR | < -0.25
151 | LRTRVHGYNRAYPLKY | < -0.25
152 | QPKGGR | < -0.25
153 | PGRDEALN | < -0.25

Some of the entries above in a different format.
FHPRSWSLAGGV
  growth estimate = < -0.25
VLRPGDVRDNL
  growth estimate = < -0.25

Look-ups from the results shown:
For growth estimate, SSKHCIDTVSAGLNRLVITR reads < -0.25
For growth estimate, LRTRVHGYNRAYPLKY reads < -0.25
For growth estimate, VLRPGDVRDNL reads < -0.25
